According to paper doi:10.1101/2025.11.18.688769:
These are yes or no findings as the source states them, for the method shown. Binding seen in cells or lysates may run through a third protein. Some results given as binding are weak or reduced against the parent protein; the word gives no strength.

Protein sequences, listed by entry. Tags and fused reporters are not part of them.
UniProt Q61188: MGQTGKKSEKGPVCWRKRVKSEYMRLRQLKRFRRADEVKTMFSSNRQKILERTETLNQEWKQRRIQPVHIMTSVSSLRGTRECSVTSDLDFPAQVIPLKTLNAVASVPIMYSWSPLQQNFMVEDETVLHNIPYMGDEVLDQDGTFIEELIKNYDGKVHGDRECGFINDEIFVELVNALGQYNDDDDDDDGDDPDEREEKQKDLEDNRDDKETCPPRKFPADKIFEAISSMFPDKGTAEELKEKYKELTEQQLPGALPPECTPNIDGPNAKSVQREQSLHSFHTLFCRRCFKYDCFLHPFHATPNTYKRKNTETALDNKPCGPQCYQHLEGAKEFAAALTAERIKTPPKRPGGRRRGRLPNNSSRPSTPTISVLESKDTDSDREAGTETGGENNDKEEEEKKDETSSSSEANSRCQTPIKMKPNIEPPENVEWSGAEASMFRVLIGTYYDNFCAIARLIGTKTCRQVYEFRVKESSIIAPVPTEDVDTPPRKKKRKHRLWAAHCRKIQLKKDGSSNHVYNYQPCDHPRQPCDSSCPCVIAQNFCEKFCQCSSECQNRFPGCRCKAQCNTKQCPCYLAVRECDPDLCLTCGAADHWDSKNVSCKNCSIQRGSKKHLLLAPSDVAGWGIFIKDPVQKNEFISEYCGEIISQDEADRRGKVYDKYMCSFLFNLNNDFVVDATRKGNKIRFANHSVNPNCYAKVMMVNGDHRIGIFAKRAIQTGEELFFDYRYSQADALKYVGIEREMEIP

Biological target: T1, ERAS (embryonic Ras) (mouse) (UniProt Q7TN89)
T1 sequence: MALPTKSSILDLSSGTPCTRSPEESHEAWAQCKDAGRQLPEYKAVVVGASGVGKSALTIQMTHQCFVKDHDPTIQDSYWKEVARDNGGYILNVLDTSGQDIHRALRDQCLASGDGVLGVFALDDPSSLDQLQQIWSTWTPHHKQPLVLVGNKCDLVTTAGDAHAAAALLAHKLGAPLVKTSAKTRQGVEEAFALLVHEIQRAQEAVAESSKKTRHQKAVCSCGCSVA
Assay: co-IP

binding: binds
Substance: EZH2 (from UniProt Q61188 1-746)
